Laboratory results: PubChem BioAssay AID1259254 (NCATS, 2017)

Aim: 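Finding genes that stop cells copying their DNA twice in one cycle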 (primary screen)
Cells: human HCT116 colorectal cancer cells
Knock-down reagent: single siRNA against human genes
Time to read-out: 3 days
Measured: 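Imaged Hoechst DNA stain sorts each cell into a cycle phase by DNA amount; per plate, G2 fraction set to 0% for non-targeting and 100% for GMNN siRNA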
Scale: G2 robust z-score and G2 cells, % of GMNN control: higher = more G2 cells, more excess DNA replication
Active means: 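Active siRNAs have a G2 robust z of 5 or more median absolute deviations over the median, which in these data means about 38% or higher of GMNN control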
Here is a random part of about 59,000 deposited reagents. About 1,550 of them (2.6%) were called active. 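G2 share is only a proxy for re-replication; each gene was hit by three separate siRNAs, and active genes were retested.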 Entries without a mark were called inactive. The numbers tell different reagents against one gene apart. Not all columns of the deposit are shown. Not given: the amount of reagent.

Silencing of ADH1B (alcohol dehydrogenase 1B (class I), beta polypeptide) #1 came out at: G2 robust z-score -0.532; G2 cells, % of GMNN control -0.778.
With knock-down of ADH1B (alcohol dehydrogenase 1B (class I), beta polypeptide) #2, the record shows G2 robust z-score 0.215; G2 cells, % of GMNN control 4.48.
ADH1B (alcohol dehydrogenase 1B (class I), beta polypeptide) #3 showed G2 robust z-score -1.33; G2 cells, % of GMNN control -6.4.
Knock-down of UBE2Q1 (ubiquitin conjugating enzyme E2 Q1) #1 gave: G2 robust z-score 0.228; G2 cells, % of GMNN control 4.57.
Knock-down of UBE2Q1 (ubiquitin conjugating enzyme E2 Q1) #2 came out at: G2 robust z-score -1.21; G2 cells, % of GMNN control -5.51.
Knock-down of UBE2Q1 (ubiquitin conjugating enzyme E2 Q1) #3 came out at: G2 robust z-score 0.296; G2 cells, % of GMNN control 5.05.
After knock-down of COL6A6 (collagen type VI alpha 6 chain) #1 the results were G2 robust z-score 1.07; G2 cells, % of GMNN control 10.5.
COL6A6 (collagen type VI alpha 6 chain) #2 showed G2 robust z-score 0.739; G2 cells, % of GMNN control 8.17.
For COL6A6 (collagen type VI alpha 6 chain) #3, the entry reads G2 robust z-score -0.519; G2 cells, % of GMNN control -0.685.
CNOT3 (CCR4-NOT transcription complex subunit 3) #1 showed G2 robust z-score 0.242; G2 cells, % of GMNN control 4.67.
CNOT3 (CCR4-NOT transcription complex subunit 3) #2 showed G2 robust z-score -0.0494; G2 cells, % of GMNN control 2.62.
Depletion of CNOT3 (CCR4-NOT transcription complex subunit 3) #3 gave: G2 robust z-score 1.38; G2 cells, % of GMNN control 12.7.
For PNMA2 (PNMA family member 2) #1, the values are G2 robust z-score 0.237; G2 cells, % of GMNN control 4.63.
PNMA2 (PNMA family member 2) #2 gave G2 robust z-score -0.0777; G2 cells, % of GMNN control 2.42.
Knock-down of PNMA2 (PNMA family member 2) #3 gave: G2 robust z-score -0.0711; G2 cells, % of GMNN control 2.47.
Against RPS5 (ribosomal protein S5) #1 the deposit lists G2 robust z-score 3.67; G2 cells, % of GMNN control 28.8.
Knock-down of RPS5 (ribosomal protein S5) #2 resulted in: G2 robust z-score 0.524; G2 cells, % of GMNN control 6.66.
Depletion of RPS5 (ribosomal protein S5) #3 came out at: G2 robust z-score 6.31 (active); G2 cells, % of GMNN control 47.3.
GDAP2 (ganglioside induced differentiation associated protein 2) #1 scored G2 robust z-score 0.908; G2 cells, % of GMNN control 9.35.
GDAP2 (ganglioside induced differentiation associated protein 2) #2 showed G2 robust z-score -0.899; G2 cells, % of GMNN control -3.36.
Silencing of GDAP2 (ganglioside induced differentiation associated protein 2) #3 came out at: G2 robust z-score -1.37; G2 cells, % of GMNN control -6.69.
Knock-down of SPPL3 (signal peptide peptidase like 3) #1 resulted in: G2 robust z-score 0.288; G2 cells, % of GMNN control 4.99.
Depletion of SPPL3 (signal peptide peptidase like 3) #2 came out at: G2 robust z-score 1.81; G2 cells, % of GMNN control 15.7.
After knock-down of SPPL3 (signal peptide peptidase like 3) #3 the results were G2 robust z-score 0.343; G2 cells, % of GMNN control 5.38.
Depletion of UBL4B (ubiquitin like 4B) #1 resulted in: G2 robust z-score 0.33; G2 cells, % of GMNN control 5.29.
With knock-down of UBL4B (ubiquitin like 4B) #2, the record shows G2 robust z-score -0.331; G2 cells, % of GMNN control 0.639.
For UBL4B (ubiquitin like 4B) #3 the deposit lists G2 robust z-score 0.207; G2 cells, % of GMNN control 4.43.
After knock-down of FAM120A (family with sequence similarity 120 member A) #1, the screen gave G2 robust z-score -0.996; G2 cells, % of GMNN control -4.04.
After knock-down of FAM120A (family with sequence similarity 120 member A) #2, the record shows G2 robust z-score -0.445; G2 cells, % of GMNN control -0.164.
For FAM120A (family with sequence similarity 120 member A) #3, the values are G2 robust z-score -0.696; G2 cells, % of GMNN control -1.93.

Records listed so far whose gene name starts with C or c:
COL6A6 (collagen type VI alpha 6 chain) #1 → G2 robust z-score = 1.07; G2 cells, % of GMNN control = 10.5
COL6A6 (collagen type VI alpha 6 chain) #2 → G2 robust z-score = 0.739; G2 cells, % of GMNN control = 8.17
COL6A6 (collagen type VI alpha 6 chain) #3 → G2 robust z-score = -0.519; G2 cells, % of GMNN control = -0.685
CNOT3 (CCR4-NOT transcription complex subunit 3) #1 → G2 robust z-score = 0.242; G2 cells, % of GMNN control = 4.67
CNOT3 (CCR4-NOT transcription complex subunit 3) #2 → G2 robust z-score = -0.0494; G2 cells, % of GMNN control = 2.62
CNOT3 (CCR4-NOT transcription complex subunit 3) #3 → G2 robust z-score = 1.38; G2 cells, % of GMNN control = 12.7
